No constants are given. Whether binding was seen depends on the method and setting. Binding seen in cells or lysates may run through a third protein. Some results given as binding are weak or reduced against the parent protein; the word gives no strength. Sequences can lack the tags named with a protein.
T1: Irr1 (Saccharomyces cerevisiae) (UniProt P40541)
T1 sequence (looked up): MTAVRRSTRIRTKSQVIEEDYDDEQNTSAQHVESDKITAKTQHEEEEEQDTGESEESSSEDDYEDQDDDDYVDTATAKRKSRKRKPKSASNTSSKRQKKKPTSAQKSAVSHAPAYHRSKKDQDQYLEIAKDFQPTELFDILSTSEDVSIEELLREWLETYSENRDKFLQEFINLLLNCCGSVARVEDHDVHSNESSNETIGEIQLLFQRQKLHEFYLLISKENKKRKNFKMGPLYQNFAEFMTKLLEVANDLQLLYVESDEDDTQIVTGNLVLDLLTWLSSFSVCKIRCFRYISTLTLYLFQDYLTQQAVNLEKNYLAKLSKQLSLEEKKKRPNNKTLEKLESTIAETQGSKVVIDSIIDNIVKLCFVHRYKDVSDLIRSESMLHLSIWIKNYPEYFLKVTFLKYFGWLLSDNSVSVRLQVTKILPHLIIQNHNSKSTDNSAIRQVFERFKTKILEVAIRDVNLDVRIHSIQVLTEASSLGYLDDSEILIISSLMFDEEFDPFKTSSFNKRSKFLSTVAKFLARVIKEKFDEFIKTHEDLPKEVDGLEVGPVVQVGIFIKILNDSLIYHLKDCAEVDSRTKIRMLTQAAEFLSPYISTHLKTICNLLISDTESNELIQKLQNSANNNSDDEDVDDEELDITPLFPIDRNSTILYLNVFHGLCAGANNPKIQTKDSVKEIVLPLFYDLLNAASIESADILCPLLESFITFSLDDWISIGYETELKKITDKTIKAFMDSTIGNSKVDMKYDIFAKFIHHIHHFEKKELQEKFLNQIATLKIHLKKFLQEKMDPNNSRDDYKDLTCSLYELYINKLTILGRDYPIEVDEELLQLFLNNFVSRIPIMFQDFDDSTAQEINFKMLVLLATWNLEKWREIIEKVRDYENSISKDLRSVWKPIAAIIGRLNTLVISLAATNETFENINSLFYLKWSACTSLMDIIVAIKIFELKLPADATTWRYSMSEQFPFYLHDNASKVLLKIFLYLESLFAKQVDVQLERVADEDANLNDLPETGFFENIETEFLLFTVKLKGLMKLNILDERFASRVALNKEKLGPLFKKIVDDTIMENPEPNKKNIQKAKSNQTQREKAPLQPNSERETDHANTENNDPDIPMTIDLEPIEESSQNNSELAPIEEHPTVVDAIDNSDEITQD

T2: Dig2/Rst2 (Saccharomyces cerevisiae) (UniProt Q03373)
T2 sequence (looked up): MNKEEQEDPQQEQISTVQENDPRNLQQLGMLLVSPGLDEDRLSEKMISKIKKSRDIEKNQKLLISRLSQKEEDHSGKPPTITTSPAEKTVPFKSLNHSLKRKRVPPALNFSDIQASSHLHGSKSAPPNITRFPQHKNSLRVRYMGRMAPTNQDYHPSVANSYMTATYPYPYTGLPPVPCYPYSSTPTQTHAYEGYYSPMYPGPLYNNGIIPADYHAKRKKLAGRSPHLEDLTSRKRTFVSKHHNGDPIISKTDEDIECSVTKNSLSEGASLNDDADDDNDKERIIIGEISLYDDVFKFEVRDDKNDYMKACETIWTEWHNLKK


Key:
[1] = target: T1, Irr1 (Saccharomyces cerevisiae); experiment: anti-FLAG co-IP, LC-MS/MS
[2] = target: T2, Dig2/Rst2 (Saccharomyces cerevisiae); experiment: anti-FLAG co-IP, LC-MS/MS

| Binder | binding [1] | binding [2] |
| --- | --- | --- |
| Cdc5 (protein, Saccharomyces cerevisiae, UniProt P32562 1-705, looked up) MSLGPLKAINDKQLNTRSKLVHTPIKGNTADLVGKENHFKQTKRLDPNNDHHHQPAQKKKREKLSALCKTPPSLIKTRGKDYHRGHFLGEGGFARCFQIKDDSGEIFAAKTVAKASIKSEKTRKKLLSEIQIHKSMSHPNIVQFIDCFEDDSNVYILLEICPNGSLMELLKRRKVLTEPEVRFFTTQICGAIKYMHSRRVIHRDLKLGNIFFDSNYNLKIGDFGLAAVLANESERKYTICGTPNYIAPEVLMGKHSGHSFEVDIWSLGVMLYALLIGKPPFQARDVNTIYERIKCRDFSFPRDKPISDEGKILIRDILSLDPIERPSLTEIMDYVWFRGTFPPSIPSTVMSEAPNFEDIPEEQSLVNFKDCMEKSLLLESMSSDKIQRQKRDYISSIKSSIDKLEEYHQNRPFLPHSLSPGGTKQKYKEVVDIEAQRRLNDLAREARIRRAQQAVLRKELIATSTNVIKSEISLRILASECHLTLNGIVEAEAQYKMGGLPKSRLPKIKHPMIVTKWVDYSNKHGFSYQLSTEDIGVLFNNGTTVLRLADAEEFWYISYDDREGWVASHYLLSEKPRELSRHLEVVDFFAKYMKANLSRVSTFGREEYHKDDVFLRRYTRYKPFVMFELSDGTFQFNFKDHHKMAISDGGKLVTYISPSHESTTYPLVEVLKYGEIPGYPESNFREKLTLIKEGLKQKSTIVTVD | binds | – |
| Kss1 (protein, Saccharomyces cerevisiae, UniProt P14681 1-368, looked up) MARTITFDIPSQYKLVDLIGEGAYGTVCSAIHKPSGIKVAIKKIQPFSKKLFVTRTIREIKLLRYFHEHENIISILDKVRPVSIDKLNAVYLVEELMETDLQKVINNQNSGFSTLSDDHVQYFTYQILRALKSIHSAQVIHRDIKPSNLLLNSNCDLKVCDFGLARCLASSSDSRETLVGFMTEYVATRWYRAPEIMLTFQEYTTAMDIWSCGCILAEMVSGKPLFPGRDYHHQLWLILEVLGTPSFEDFNQIKSKRAKEYIANLPMRPPLPWETVWSKTDLNPDMIDLLDKMLQFNPDKRISAAEALRHPYLAMYHDPSDEPEYPPLNLDDEFWKLDNKIMRPEEEEEVPIEMLKDMLYDELMKTME | – | binds |
